# Data published in article PMC7819943, “Rice protein-binding microarrays: a tool to detect cis-acting elements near promoter regions in rice”.
# The other results are listed elsewhere or left out.
# Biological target: T1, OsSMF1 (Oryza sativa, UniProt Q6ZLB0 1-436)
# T1 sequence: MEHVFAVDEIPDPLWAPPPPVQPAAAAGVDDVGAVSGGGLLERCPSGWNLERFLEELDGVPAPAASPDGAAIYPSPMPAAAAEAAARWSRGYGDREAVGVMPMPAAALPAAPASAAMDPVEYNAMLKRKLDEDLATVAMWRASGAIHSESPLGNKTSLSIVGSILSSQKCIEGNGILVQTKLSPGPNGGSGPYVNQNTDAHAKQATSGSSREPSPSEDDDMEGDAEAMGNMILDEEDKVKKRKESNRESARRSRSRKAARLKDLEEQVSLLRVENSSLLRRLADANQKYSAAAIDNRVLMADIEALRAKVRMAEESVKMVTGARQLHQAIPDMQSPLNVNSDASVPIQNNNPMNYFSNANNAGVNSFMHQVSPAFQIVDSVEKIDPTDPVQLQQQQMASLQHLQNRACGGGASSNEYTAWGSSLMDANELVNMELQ
# Test: protein-binding microarray (RPBM); PBS, 2% BSA, 51.3 ng/ul salmon testes DNA, 50 uM zinc acetate, 200 nM TF, 25 C, 1 h; high values mean tight binding
# Conditions: protein: recombinant; tags: N-terminal polyhistidine and DsRed monomer fusion (pET32a); chain copies: 2; label: CyDye5-dUTP incorporated in the synthesized complementary strand; 3' TTTTT single-stranded linker to array surface; dsDNA, one strand shown
# In short: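 An Axon 4000B scanner gave the binding signal as per-feature fluorescence intensity in arbitrary units. This followed washing of a custom Agilent array that had been incubated for 1 h at 25 °C with 200 nM protein in PBS, 2% BSA, salmon testes DNA and 50 µM zinc acetate. The proteins were transcription factors fused at the N-terminus to polyhistidine and DsRed, expressed in E. coli BL21-CodonPlus and purified on Ni–NTA.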
row,Sequence,binding signal
1,GTGATATGACATGGTTGTTCCATCGACGTGGTATACTATTCGGAGTCACCTAGTGCAG,4510 fluorescence intensity (a.u.)
2,GTATTGATCATATTGTGTGCATTTATGGTGTATCAAAATACGGAGTCACCTAGTGCAG,29400 fluorescence intensity (a.u.)
3,GGTGGCGGCGCGGGCCGGGCGGCGGCGGCGGCGGCGGCTCCGGAGTCACCTAGTGCAG,40400 fluorescence intensity (a.u.)
4,ACCACCTTCTGATCAGCCAAACTCACGTTAGAACATCTCACGGAGTCACCTAGTGCAG,3140 fluorescence intensity (a.u.)
5,GATTATAAAATATGAATAGTACTTTACGTGTGACTTATGTCGGAGTCACCTAGTGCAG,3700 fluorescence intensity (a.u.)
6,CTTATCAGTCGTAGCTCAACCTATAAGAGGCCTAAATATACGGAGTCACCTAGTGCAG,32800 fluorescence intensity (a.u.)
7,ACTCGGAGAAAACAAGCCATCACAATCACGAATTGAAGAACGGAGTCACCTAGTGCAG,3420 fluorescence intensity (a.u.)
8,GATGGACGGAGCACCCACTGCTGCGGGCGTGAGGTGTCGCCGGAGTCACCTAGTGCAG,4410 fluorescence intensity (a.u.)
9,TACACTCATTATCCGACAATCAGTTCTGACATGGTTGAACCGGAGTCACCTAGTGCAG,3260 fluorescence intensity (a.u.)
10,TAAATTAGGTGATACGTCATCCTCGTGTGCGCGGTCGTGGCGGAGTCACCTAGTGCAG,10300 fluorescence intensity (a.u.)
11,CTTTATTTCCTTGCATGTCAACTATAAACCTACACCTCCTCGGAGTCACCTAGTGCAG,3430 fluorescence intensity (a.u.)
12,GGATCTACAATGAACGAAATAACGCGTGGCATTGTACTCTCGGAGTCACCTAGTGCAG,5510 fluorescence intensity (a.u.)
13,CACACCCTCTCCCCTCCTCCATGCTTCTACGTCATCGTCACGGAGTCACCTAGTGCAG,7160 fluorescence intensity (a.u.)
14,TTAGTCACTGTTTGGCATATTCCACGTTAGATTTAAAACTCGGAGTCACCTAGTGCAG,4200 fluorescence intensity (a.u.)
15,CAACGTGACAAGAAAACTTTAGTCACGGGATCCAAACGCTCGGAGTCACCTAGTGCAG,3190 fluorescence intensity (a.u.)
16,AGCCGCTTGGCCACCCCTCGCCACCTGGTCATCGCTGCCGCGGAGTCACCTAGTGCAG,4680 fluorescence intensity (a.u.)
17,GTGTGAGATCCATTTGTCACTTACACACCCTCTTTCTCTTCGGAGTCACCTAGTGCAG,3520 fluorescence intensity (a.u.)
18,GCATCGCCCTGCCGCCGACGACCGTCGCCATCGCGCCCTGCGGAGTCACCTAGTGCAG,3300 fluorescence intensity (a.u.)
19,CATCTTCCCCTCCCTCACTCGCTGACGCGTGGGGCCAGCGCGGAGTCACCTAGTGCAG,4190 fluorescence intensity (a.u.)
20,TTTCTACAGTTTTAACTGATTCTGCATATGTTGGCTTCTCCGGAGTCACCTAGTGCAG,3270 fluorescence intensity (a.u.)
21,CAGCGGGTCAACGAGCGAAGACGAAGGTGACAGGGCAAGCCGGAGTCACCTAGTGCAG,32500 fluorescence intensity (a.u.)

row,Sequence,binding signal
1,CTCGCATAATCTTGTATCCCTCATCTCAGATTATCATCACCGGAGTCACCTAGTGCAG,3210 fluorescence intensity (a.u.)
2,TCTCTGTCAGATCATCAGACGCAATATTGTGCTCTCTGTCCGGAGTCACCTAGTGCAG,4470 fluorescence intensity (a.u.)
3,CTGAAACCAATAAATTGTAGACGTGGTACAATTCTGACTCCGGAGTCACCTAGTGCAG,3960 fluorescence intensity (a.u.)
4,GAGTTGTGCGTATTGTTCCCTGCGTCACTGCGTGCTCTTGCGGAGTCACCTAGTGCAG,5700 fluorescence intensity (a.u.)
5,GCATCGTGGGGTGTGGGTGGCGGTTTTGGAGGGGAGAGGTCGGAGTCACCTAGTGCAG,4780 fluorescence intensity (a.u.)
6,TGCTGATACCGAGACACCTCATCCCTTTCACCGCGGTATCCGGAGTCACCTAGTGCAG,5170 fluorescence intensity (a.u.)
7,ATGTACCGCATATACTTTAGACAATATAACATCGAGTGAACGGAGTCACCTAGTGCAG,7260 fluorescence intensity (a.u.)
8,CTGAGATCCGGCGGCCGCTGACCGGGCTCGACGACACGCTCGGAGTCACCTAGTGCAG,3240 fluorescence intensity (a.u.)
9,ATTTCGCCTGAGCCACGCGTCGCTCCCTCTCCTCTTCTCCCGGAGTCACCTAGTGCAG,3410 fluorescence intensity (a.u.)
10,GGAACTGTCACTGCTTTGTCAGACGTTCGCCTATAATTCACGGAGTCACCTAGTGCAG,5300 fluorescence intensity (a.u.)
11,GGTTGGGAGAAAAGCCCCACATGTCAGTGACACGGCCAGCCGGAGTCACCTAGTGCAG,5240 fluorescence intensity (a.u.)
12,GATTGGCTGTGAGTGGTGTTAACCTAGCTGGACTCGGTTCCGGAGTCACCTAGTGCAG,3260 fluorescence intensity (a.u.)
13,CACGTGGGACGAAAACTAGGTCAACATCGCCACGTCAGCGCGGAGTCACCTAGTGCAG,45900 fluorescence intensity (a.u.)
14,TCCCACGGAGACGGAGTGAACTCCACGTCCATTGATGGGTCGGAGTCACCTAGTGCAG,4520 fluorescence intensity (a.u.)
15,AAAAGGGGCTCGCTGGCCGGAGACGAAGACGGAGACGCAGCGGAGTCACCTAGTGCAG,14200 fluorescence intensity (a.u.)
16,CAGAAGAAATGCCACTGTATCATTGATAATAATGCTCTATCGGAGTCACCTAGTGCAG,30100 fluorescence intensity (a.u.)
17,TTGTGCAGTCTCATCTACCTGTGACGTTTACAGTTTTGACCGGAGTCACCTAGTGCAG,4800 fluorescence intensity (a.u.)
18,TTACTTGAAAGCGTGACGCGGACACGTGGCGCCTCCGTAGCGGAGTCACCTAGTGCAG,12700 fluorescence intensity (a.u.)
19,ATGTGTGTGGGATATTACGCTGCTAAAACTTTGTGTTTCTCGGAGTCACCTAGTGCAG,3410 fluorescence intensity (a.u.)
20,GCGACGGCGGTGGTGGTGGGGTGTGGACGGCTAGGGTTTACGGAGTCACCTAGTGCAG,5060 fluorescence intensity (a.u.)
21,TTCCTACGTGCTGCCGCGCGCCACATATTAATCAGCCGCACGGAGTCACCTAGTGCAG,3840 fluorescence intensity (a.u.)

# Single entries from above:
# binding signal, TTCCTACGTGCTGCCGCGCGCCACATATTAATCAGCCGCACGGAGTCACCTAGTGCAG reads 3840 fluorescence intensity (a.u.)
# binding signal, GGTTGGGAGAAAAGCCCCACATGTCAGTGACACGGCCAGCCGGAGTCACCTAGTGCAG reads 5240 fluorescence intensity (a.u.)
# binding signal, TGCTGATACCGAGACACCTCATCCCTTTCACCGCGGTATCCGGAGTCACCTAGTGCAG reads 5170 fluorescence intensity (a.u.)
